Reference: patent US20260055187A1
These are yes or no findings as the source states them, for the method shown. Some entries that bind do so weakly or less than the wild type.

Amino acid sequences for entries named in this document (tags omitted). A change or cut given only in a name is not applied to a line headed by its entry. Chains listed by the source or under a name are the forms on record and can include a tag or linker. Residues count along the entry.
UniProt Q15116: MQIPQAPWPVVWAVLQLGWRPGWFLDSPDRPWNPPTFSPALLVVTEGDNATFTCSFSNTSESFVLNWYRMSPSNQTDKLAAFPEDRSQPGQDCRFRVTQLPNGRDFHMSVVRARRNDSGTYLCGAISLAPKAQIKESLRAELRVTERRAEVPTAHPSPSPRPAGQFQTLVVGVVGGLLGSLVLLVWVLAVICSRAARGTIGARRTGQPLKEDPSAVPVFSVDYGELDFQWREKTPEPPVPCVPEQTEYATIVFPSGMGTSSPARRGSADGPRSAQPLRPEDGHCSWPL
PD-1 expressed on activated T cells: residues 25-288 of Q15116
His-tagged extracellular domain of human PD-1: residues 25-170 of Q15116

B1: PD-1 antibody 3H4 (antibody, V domains shown)
VH: QIQLQQSGPELVKPGASVKISCKASGYTFTDYYINWVKQKPGQGLEWIGWIYPGSVNTKYNEKFRGKATLTVDTSSSTAYIQLSGLTSEDTAVYFCARYSNWFFDVWGAGTAVTVS
VL: DIVMTQSPSSLSASLGERVSLTCRASQEISGYLSWLQQKPDGTIKRLIYAASTLDSGVPKRFSGSRSGSDYSLSISSLESEDFADYYCLQYASYPYTFGGGTKLEIKR
B2: PD-1 antibody 1-33 (antibody, V domains shown)
VH: QVQLVQSGAEVKKPGASVRVSCKASGYTLTSYYIHWVRQAPGQGLEWMGIINPRGATISYAQKFQGRVTMTRDTSTSTVYMELRNLKSEDTALYYCATAGIYGFDFDYWGRGTLVTVSS
VL: QSALTQPASVSGSPGQSITISCTGTSNDVGGYNYVSWYQHHPGKAPKLIIYDVTNRPSGVSDRFSGSKSGNTASLTISGLLAEDEGDYYCSSYTIVTNFEVLFGGGTKLTV
B3: PD-1 antibody 1-28 (antibody, V domains shown)
VH: EVQLVQSGAEVKKPGASVKVSCKASGYRFTSYGISWVRQAPGQGLEWMGWISAYNGNTNYAQKLQGRVTMTTDTSTNTAYMELRSLRSDDTAVYYCARDADYSSGSGYWGQGTLVTVSS
VL: SYELTQPPSVSVSPGQTARITCSGDALPKQYAYWYQQKPGQAPVMVIYKDTERPSGIPERFSGSSSGTKVTLTISGVQAEDEADYYCQSADNSITYRVFGGGTKVTVL
B4: PD-1 antibody 1-17 (antibody, V domains shown)
VH: QVQLQESGPGVVKPSGTLSLTCAISGGSIGSGGSIRSTRWWSWVRQSPGKGLEWIGEIYHSGSTNYNPSLKSRVTISLDKSRNHFSLRLNSVTAADTAVYYCARQDYGDSGDWYFDLWGKGTMVTVSS
VL: NFMLTQPHSVSESPGKTVTISCTRSSGSIASNSVQWYQQRPGSSPTTVIYEDNQRPSGVPDRFSGSIDSSSNSASLTVSGLKTEDEADYYCQSSDSSAVVFGSGTKLTVL

molecular target: PD-1 expressed on activated T cells (UniProt Q15116); assay: flow cytometry on activated T cells

Row | binding | Binder
1 | binds | B1
2 | binds | B2
3 | binds | B3
4 | binds | B4

molecular target: His-tagged extracellular domain of human PD-1 (human) (UniProt Q15116); assay: ELISA, His-tagged extracellular domain on plate

Row | binding | Binder
5 | binds | B1

molecular target: PD-1 expressed on activated T cells (UniProt Q15116); assay: flow cytometry on activated T cells, PE anti-human secondary

Row | binding | Binder
6 | binds | B1
7 | binds | B2
8 | binds | B3
9 | binds | B4
